The results in this text go back to article PMC7544099.

By UniProt entry, the sequences of proteins in these tests, tags left out.
UniProt Q9Y3Z3: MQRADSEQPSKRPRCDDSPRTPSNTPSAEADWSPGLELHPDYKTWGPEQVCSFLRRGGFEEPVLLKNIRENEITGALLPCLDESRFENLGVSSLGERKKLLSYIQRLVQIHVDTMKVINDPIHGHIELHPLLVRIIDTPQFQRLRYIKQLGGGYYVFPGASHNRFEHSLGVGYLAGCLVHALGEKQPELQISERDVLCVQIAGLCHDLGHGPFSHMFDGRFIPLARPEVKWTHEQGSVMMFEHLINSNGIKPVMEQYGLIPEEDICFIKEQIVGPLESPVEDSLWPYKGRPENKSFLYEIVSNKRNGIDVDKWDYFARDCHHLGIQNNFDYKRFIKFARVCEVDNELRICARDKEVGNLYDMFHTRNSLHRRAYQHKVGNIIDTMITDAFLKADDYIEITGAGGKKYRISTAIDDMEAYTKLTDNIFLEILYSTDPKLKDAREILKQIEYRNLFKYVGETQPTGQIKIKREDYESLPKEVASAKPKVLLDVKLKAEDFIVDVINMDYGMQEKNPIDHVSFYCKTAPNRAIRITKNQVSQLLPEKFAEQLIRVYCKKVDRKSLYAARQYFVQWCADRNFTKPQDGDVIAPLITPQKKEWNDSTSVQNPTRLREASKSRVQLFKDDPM
UniProt P09715: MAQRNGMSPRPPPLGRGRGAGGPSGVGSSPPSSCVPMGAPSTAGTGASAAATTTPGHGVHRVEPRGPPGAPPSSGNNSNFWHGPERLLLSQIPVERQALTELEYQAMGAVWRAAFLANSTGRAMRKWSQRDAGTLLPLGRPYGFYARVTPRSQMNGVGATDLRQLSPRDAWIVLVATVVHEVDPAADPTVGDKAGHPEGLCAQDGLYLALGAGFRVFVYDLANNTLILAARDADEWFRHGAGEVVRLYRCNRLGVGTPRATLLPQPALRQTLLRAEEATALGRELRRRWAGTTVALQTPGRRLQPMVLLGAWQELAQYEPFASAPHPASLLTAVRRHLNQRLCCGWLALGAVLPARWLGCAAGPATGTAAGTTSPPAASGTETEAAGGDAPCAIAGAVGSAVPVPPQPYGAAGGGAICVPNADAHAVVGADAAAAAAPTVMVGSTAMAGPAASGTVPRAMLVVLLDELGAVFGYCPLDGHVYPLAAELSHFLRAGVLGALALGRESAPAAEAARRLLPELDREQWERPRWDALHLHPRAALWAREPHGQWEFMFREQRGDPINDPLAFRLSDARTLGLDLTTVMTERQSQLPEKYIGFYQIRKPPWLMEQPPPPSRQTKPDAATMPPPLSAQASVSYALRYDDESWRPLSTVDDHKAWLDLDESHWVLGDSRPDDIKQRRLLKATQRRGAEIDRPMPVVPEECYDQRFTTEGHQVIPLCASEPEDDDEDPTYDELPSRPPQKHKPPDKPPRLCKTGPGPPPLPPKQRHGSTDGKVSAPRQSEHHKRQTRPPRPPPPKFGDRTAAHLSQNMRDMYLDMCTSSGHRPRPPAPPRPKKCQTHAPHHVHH
UniProt P09695: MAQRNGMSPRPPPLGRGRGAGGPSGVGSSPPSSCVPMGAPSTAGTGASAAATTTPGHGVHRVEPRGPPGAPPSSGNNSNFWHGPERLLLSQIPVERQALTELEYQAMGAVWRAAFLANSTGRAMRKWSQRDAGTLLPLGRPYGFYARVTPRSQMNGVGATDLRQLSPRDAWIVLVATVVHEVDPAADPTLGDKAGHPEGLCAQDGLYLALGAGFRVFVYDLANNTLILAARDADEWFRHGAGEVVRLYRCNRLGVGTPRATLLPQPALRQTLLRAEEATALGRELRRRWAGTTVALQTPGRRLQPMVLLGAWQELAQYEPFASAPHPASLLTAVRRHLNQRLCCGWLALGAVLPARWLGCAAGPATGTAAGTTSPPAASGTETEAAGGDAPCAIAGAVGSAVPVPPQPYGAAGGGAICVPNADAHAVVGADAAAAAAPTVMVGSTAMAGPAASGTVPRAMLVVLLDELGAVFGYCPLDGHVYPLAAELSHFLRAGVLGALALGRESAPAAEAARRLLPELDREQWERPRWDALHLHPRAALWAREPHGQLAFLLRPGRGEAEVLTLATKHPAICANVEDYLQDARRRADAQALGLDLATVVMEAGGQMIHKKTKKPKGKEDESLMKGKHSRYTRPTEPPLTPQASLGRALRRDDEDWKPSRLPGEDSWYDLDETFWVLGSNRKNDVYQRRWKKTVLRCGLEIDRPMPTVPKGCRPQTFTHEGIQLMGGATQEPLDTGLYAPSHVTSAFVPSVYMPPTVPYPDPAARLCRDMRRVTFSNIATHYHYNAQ
UniProt P16790: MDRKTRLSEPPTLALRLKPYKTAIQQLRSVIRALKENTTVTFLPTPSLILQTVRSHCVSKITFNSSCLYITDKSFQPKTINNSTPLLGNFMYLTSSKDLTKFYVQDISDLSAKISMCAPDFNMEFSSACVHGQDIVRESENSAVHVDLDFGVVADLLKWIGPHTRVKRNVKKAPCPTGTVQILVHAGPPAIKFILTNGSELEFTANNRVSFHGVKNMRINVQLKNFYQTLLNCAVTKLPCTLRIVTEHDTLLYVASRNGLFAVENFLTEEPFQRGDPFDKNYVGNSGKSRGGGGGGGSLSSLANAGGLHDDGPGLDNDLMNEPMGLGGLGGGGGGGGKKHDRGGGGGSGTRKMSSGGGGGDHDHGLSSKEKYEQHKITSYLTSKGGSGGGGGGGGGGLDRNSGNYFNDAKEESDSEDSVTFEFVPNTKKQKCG

No constants are given. Whether binding was seen depends on the method and setting. In cells and extracts the contact can be indirect. Here binding means that the protein was enriched with, or labelled near, the bait; the list need not be complete.

The target of this test is Sterile α motif (SAM) and histidine-aspartic acid domain (HD)-containing protein 1 (SAMHD1) (human (endogenous in HFFs)) (UniProt Q9Y3Z3). As to the kind of experiment: affinity purification with mass spectrometry; lysates of HFFs not infected or infected with AD169 (MOI 1 and MOI 3, 3 dpi) immunoprecipitated by protein A Sepharose beads with anti-SAMHD1 or anti-pT592-SAMHD1 Ab, rabbit IgG as control; LC-MS/MS, label-free quantification; fold change between the two pull-downs.
IRS1 (from UniProt P09715 1-846): the binding entry is listed as “binds”. With TRS1 (from UniProt P09695 1-788) the entry was “binds”; with VPAP (from UniProt P16790 1-433), “binds”.
